Test results reported in PubChem BioAssay AID2685 (National Center for Advancing Translational Sciences (NCATS), 2010).
This is one part of the list. These are further read-outs of the screen, such as a control signal, another cell line or another target. No call is given for them. Most of these compounds were active or inconclusive in the main read-out, so they are no random draw. Words in brackets tell the shape of the fitted curve; partial curves, single points and poor fits give uncertain potencies. Where a SMILES comes first, the peptide text is derived from it. The star is where a group is joined. Boc = CC(C)(C)OC(=O)*

Experiment: qHTS Assay for Lipid Storage Modulators in Drosophila S3 Cells;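 for cell number change: cells counted by Cell Tracker Red CMTPX staining in the red channel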
Settings: BODIPY lipid droplet fluorescence, 18-24 h; for cell number change: measured here: cell count max response, cells fed with added oleic acid
Summary of the method: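 Laser-scanning cytometry quantifies lipid droplet accumulation (500–530 nm total intensity; droplet/cell object ratio) in oleic acid-fed (400 uM added) Drosophila S3 cells treated with a concentration series. 20 uM Triacsin C defined 100% inhibition.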

[1] = measured here: cell number channel AC50, cells fed with added oleic acid
[2] = measured here: lipid fluorescence (Fed channel) AC50, cells fed with added oleic acid

| Structure (SMILES) | cell number change | AC50 [1] | AC50 [2] |
| --- | --- | --- | --- |
| O=C(Nc1cccnc1)C1(c2ccc(Cl)cc2)CCCC1 | 38.7% | 6.51 µM [rising, partial curve] | 6.51 µM [rising, single point] |
| Cn1cnc([N+](=O)[O-])c1Sc1n[nH]c(N)n1 | 6.09% | – | – |
| CCC(C)C(NC(=O)OC(C)(C)C)C(=O)NC(CC(C)C)C(N)=O (stereo not drawn) (Boc-Ile-Leu-NH2; configuration not given here) | -149% | 29.1 µM [falling, single point] | 29.1 µM [falling, single point] |
| COc1ccc(CC(=O)Nc2ccc(-c3cn4ccc(C)cc4n3)cc2)cc1 | -0.516% | – | – |
| C=CCn1c(SCC(=O)Nc2ccccc2C)nc2sc(C)c(C)c2c1=O | -40.6% | 2.31 µM [rising, partial curve] | 2.31 µM [rising, partial curve] |
| COc1ccc(CSc2nnc3[nH]c(=O)cc(N)n23)cc1 | -6.56% | 0.082 µM [falling, full curve, poor fit] | – |
| CCCCOc1ccc(-c2c(C(=O)Nc3ccccc3)c(C)[nH]c(=S)c2C#N)cc1 | 34.4% | 5.17 µM [rising, single point] | – |
| Cc1ccc(SC[C@H](Cc2ccccc2)N2CC[C@@H](C)CCC2=O)cc1 | 9.88% | 0.116 µM [rising, full curve, poor fit] | – |
| O=C(NCc1ccc2c(c1)OCO2)c1cc2n(n1)C(C(F)(F)F)CC(c1ccc3c(c1)OCO3)N2 (stereo not given) | – | 7.31 µM [falling, single point] | – |
| Cc1cc(C)cc(OCC(=O)Nc2ccc(CN3CCCCC3)cc2)c1 | 42.3% | 0.00461 µM [rising, full curve, poor fit] | 29.1 µM [rising, single point] |
| COc1ccc(CN2C(=O)C(Cc3ccccc3)Nc3ncnc(N4CCN(c5ccccc5)CC4)c32)cc1 (stereo not given) | -13.9% | – | 11.6 µM [falling, single point] |
| Cc1nc(C)n(CC(C)C(=O)N2CCN(S(=O)(=O)c3ccc(Cl)cc3)CC2)n1 (stereo not given) | -23.7% | 0.0517 µM [falling, full curve, poor fit] | – |
| Cc1nc2ccccc2nc(=O)c1NNc1ccc([N+](=O)[O-])cc1 | 9.86% | – | 0.411 µM [rising, partial curve, poor fit] |
| O=C(O)c1ccc2c(c1)C(=O)N([C@H](Cc1ccc(Cl)cc1)C(=O)O)C2=O | 18.3% | – | 29.1 µM [rising, single point] |
| CC1CCN(C(=O)CN2C(=O)c3ccccc3S2(=O)=O)CC1 | 10.4% | – | 0.259 µM [falling, full curve, poor fit] |
| COc1cccc(-c2c(-c3cc(OC)cc(OC)c3)n(C)c3ccc(-c4ccc5[nH]ccc5c4)cc23)c1 | -8.67% | – | 0.651 µM [rising, single point] |
| CCOc1ccc(CN2C(=O)c3ccccc3C2=O)cc1C(=O)NC1CC(C)(C)NC(C)(C)C1 | -54.4% | 23.1 µM [falling, single point] | 4.11 µM [falling, full curve] |
| CCOc1ccc(N2CC(C(=O)NCCN3C(=O)S/C(=C\c4ccc(OC)c(OC)c4)C3=O)CC2=O)cc1 (stereo not given) | – | – | 4.11 µM [rising, partial curve, poor fit] |
| COC(=O)c1ccc2c(=O)n(CCN3CCOCC3)c(SCC(=O)C(C)(C)C)nc2c1 | 21.6% | – | 25.9 µM [rising, single point] |

Two records drawn at random from those above, as already listed:

| Structure (SMILES) | cell number change | AC50 [1] | AC50 [2] |
| --- | --- | --- | --- |
| COc1ccc(CC(=O)Nc2ccc(-c3cn4ccc(C)cc4n3)cc2)cc1 | -0.516% | – | – |
| Cc1nc(C)n(CC(C)C(=O)N2CCN(S(=O)(=O)c3ccc(Cl)cc3)CC2)n1 (stereo not given) | -23.7% | 0.0517 µM [falling, full curve, poor fit] | – |

Later entries.

| Structure (SMILES) | cell number change | AC50 [1] | AC50 [2] |
| --- | --- | --- | --- |
| Cc1cn(C2OC(COC(=O)c3ccccc3)C(O)C2Cl)c(=O)[nH]c1=O (stereo not given) | 10.4% | – | 1.16 µM [rising, full curve] |
| Cc1c(Br)cc(C(=O)O)c(C)c1C | – | – | 18.4 µM [falling, partial curve] |
| N#CC1=C(N)Oc2n[nH]c(-c3cccs3)c2C1c1cccnc1 (stereo not given) | -2.28% | – | 0.116 µM [rising, full curve, poor fit] |
| CC(CCO)Nc1nc2c([nH]1)c(=O)n(C)c(=O)n2C (stereo not given) | -21.3% | – | 5.8 µM [falling, full curve, poor fit] |
| CCOc1ccc(N/C=C/C(=O)c2ccc(C)cc2)c([N+](=O)[O-])c1 | 5.27% | – | – |
| COc1cc(CN2CCCC(CO)(Cc3cccc(Cl)c3)C2)cc(OC)c1O (stereo not given) | 2.07% | 0.731 µM [falling, single point] | – |
| O=C(N1CCCCC1)N1CCN(c2ccc(Cl)cc2)CC1 | – | – | 5.8 µM [rising, single point] |
| CCOc1cc(CNC(=O)CN2C(=O)c3ccccc3S2(=O)=O)ccc1OC | -68% | 3.26 µM [falling, full curve] | – |
| CN(C(=O)COC(=O)CN1C(=O)C2CC=CCC2C1=O)c1ccccc1 (stereo not given) | -25% | 0.206 µM [falling, full curve, poor fit] | 18.4 µM [rising, single point] |
| Cc1ccc(N=Nc2c(=O)[nH]n3c(C)cc(C)nc23)cc1 | 20.7% | – | 32.6 µM [rising, single point] |
| O=C(NCc1ccco1)C(=O)c1c[nH]c2ccccc12 | 14.5% | – | – |
| O=C(O)CCCn1cc(NC(=O)c2cccc(F)c2)cn1 | -7.74% | – | – |
| O=C(COc1ccccc1F)Nc1cc(S(=O)(=O)N2CCOCC2)ccc1N1CCOCC1 | 12.9% | – | – |
| CN(Cc1ccco1)S(=O)(=O)c1nnc(NC(=O)c2cccc(Cl)c2)s1 | – | 6.51 µM [falling, single point] | 29.1 µM [falling, single point] |
| Cc1cc(OC(=O)C(C)(C)C)c([N+](=O)[O-])c(=O)[nH]1 | 21.9% | – | 1.16 µM [rising, full curve, poor fit] |
| COc1cc(CC(C#N)(CO)c2nc3ccccc3[nH]2)ccc1OC(F)F (stereo not given) | -50% | 0.58 µM [falling, full curve, poor fit] | – |
| CCOC(=O)C1=NN(C(C)=O)C2(CC(=O)N(c3cc(C)cc(C)c3)C2=O)C1 (stereo not given) | -12% | – | 0.058 µM [falling, full curve, poor fit] |
| COc1cc(C(=O)N/N=C/C2CC=CCC2)cc(OC)c1OC (stereo not given) | -18% | – | 4.61 µM [rising, single point] |
| CC(C)C[C@@H]1NC(=O)[C@H](Cc2ccc(O)cc2)NC(=O)c2cc([N+](=O)[O-])cc(I)c2NCCC[C@@H](C(N)=O)NC1=O | -22% | 0.82 µM [falling, full curve, poor fit] | 2.06 µM [falling, full curve] |

| Structure (SMILES) | cell number change | AC50 [1] | AC50 [2] |
| --- | --- | --- | --- |
| CCCNC(=S)Nc1ccc(Oc2ccccc2)cc1 | 43.5% | 16.4 µM [rising, single point] | 29.1 µM [rising, single point] |
| CN(C)c1ccc(C(=O)N2CC(=O)N(CCc3ccccc3)C(=O)C2)cc1 | 15.7% | – | 29.1 µM [rising, single point] |
| NS(=O)(=O)c1ccc(NC(=O)CSC2CCCCC2)cc1 | -0.13% | – | 29.1 µM [falling, single point] |
| O=C(Nc1nc(-c2cccc([N+](=O)[O-])c2)cs1)c1cccc([N+](=O)[O-])c1C(=O)O | 1.37% | – | 2.31 µM [rising, partial curve, poor fit] |
| CCS(=O)(=O)N1CCN(C(=O)C(c2ccccc2)c2ccccc2)CC1 | – | 6.51 µM [falling, single point] | – |
| Cc1ccc(/C=N/n2cnc3sc4c(c3c2=O)CCCC4)o1 | 26.9% | 6.51 µM [rising, single point] | 13 µM [rising, partial curve] |
| N#Cc1cc(-c2ccccc2)oc1NC(=O)c1ccccc1 | -12.9% | – | 32.6 µM [falling, single point] |
| O=C(CNS(=O)(=O)c1ccccc1)Nc1ccc(F)cc1F | -11% | – | 0.092 µM [falling, full curve, poor fit] |
| COc1ccc(C)cc1NC(=O)C(c1ccccc1)N1CCN(CC(=O)N2CCCC2)CC1 (stereo not given) | 97.5% | – | – |
| O=C(Nc1nc(-c2cc(Cl)sc2Cl)cs1)c1ccc(Br)s1 | – | – | 3.26 µM [rising, partial curve] |
| COc1ccc(C)cc1S(=O)(=O)NC1CCCCC1C (stereo not given) | 4.23% | – | – |
| O=C(C1CCCN(c2ncnc3c2nc2n3CCCCC2)C1)N1CCN(c2ccc(Cl)cc2)CC1 (stereo not given) | 3.82% | – | 0.651 µM [rising, partial curve, poor fit] |
| O=C(CC1SC(=Nc2ccccc2)N(Cc2ccccn2)C1=O)Nc1cccc(Cl)c1 (stereo not given) | -36.1% | 20.6 µM [falling, partial curve] | – |
| Cc1ccc2nc(C3CCCN(C(=O)NCc4ccccc4)C3)[nH]c2c1 (stereo not given) | -3.5% | – | 0.58 µM [rising, full curve] |
| CC(C(=O)Nc1ccc2[nH]c(=O)[nH]c2c1)N1CCN(Cc2ccc3c(c2)OCO3)CC1 (stereo not given) | 6.85% | – | 25.9 µM [rising, partial curve] |
| CC(=O)NC1N=C(C)N(c2ccccc2)C1=O (stereo not given) | -345% | 4.11 µM [falling, partial curve] | 18.4 µM [falling, partial curve] |
| Cc1cc(Cl)ccc1OCCCC(=O)N1CCN(S(=O)(=O)c2ccccc2)CC1 | 196% | 23.1 µM [rising, partial curve] | – |
| O=C(NCc1ccco1)/C(=C/c1ccc(C(F)(F)F)cc1)c1nc2ccccc2[nH]1 | -44.5% | 29.1 µM [falling, single point] | 0.259 µM [falling, full curve, poor fit] |
| COc1ccc(NC(=O)CSc2n[nH]c(-c3ccccn3)n2)cc1 | -10.5% | – | – |
